Reference: PMC10480500
Results are given in words; binding and its absence hold for the method and conditions named. Binding calls can cover weak binding; strength is not graded here.

The chains behind the UniProt entries cited, without tags or fusion partners. Where a name states a change or a piece, a line headed by the entry shows the natural chain unless it says otherwise.
UniProt P69541: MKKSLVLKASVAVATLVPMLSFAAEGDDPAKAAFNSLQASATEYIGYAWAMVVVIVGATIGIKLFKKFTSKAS

How the values were obtained:
[1] = target: T1, minor coat protein pVII (bacteriophage M13) (UniProt P69535); experiment: cryo-EM structure; purified M13 mini phage particle (assembled in E. coli TG1 with helper phage M13KO7), 0.6-0.8 mg/ml; whole particle 3.5 Å with 5-fold symmetry; top, middle and bottom segments refined separately at 3.5, 3.1 and 3.3 Å; both purified
T1 sequence: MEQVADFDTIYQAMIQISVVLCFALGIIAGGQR

[2] = target: T2, minor coat protein pIX (bacteriophage M13) (UniProt P69538); experiment: as above
T2 sequence: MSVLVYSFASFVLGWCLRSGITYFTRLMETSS

## major coat protein pVIII (from UniProt P69541)
[1]
  binding: binds
[2]
  binding: binds
